# Results published in patent publication US20100273186A1, “SPLIT MUTANT HYDROLASE FUSION REPORTER AND USES THEREOF” (Promega Corporation, priority 2007, published 2010).
# Some of these results come from one statement about several compounds together.
# B1: YL: DhaA.H272F based mutant with Y273L (protein, UniProt P0A3G2 1-293, looked up, variant H272F Y273L)
# Haloalkane dehalogenase: MSEIGTGFPFDPHYVEVLGERMHYVDVGPRDGTPVLFLHGNPTSSYLWRNIIPHVAPSHRCIAPDLIGMGKSDKPDLDYFFDDHVRYLDAFIEALGLEEVVLVIHDWGSALGFHWAKRNPERVKGIACMEFIRPIPTWDEWPEFARETFQAFRTADVGRELIIDQNAFIEGALPKCVVRPLTEVEMDHYREPFLKPVDREPLWRFPNELPIAGEPANIVALVEAYMNWLHQSPVPKLLFWGTPGVLIPPAEAARLAESLPNCKTVDIGPGLFLLQEDNPDLIGSEIARWLPAL
# B2: H11YL: second generation DhaA.H272F mutant, H11 recombined with Y273L; SEQ ID NO:18 (protein)
# chain: SEIGTGFPFDPHYVEVLGERMHYVDVGPRDGTPVLFLHGNPTSSYLWRNIIPHVAPSHRCIAPDLIGMGKSDKPDLDYFFDDHVRYLDAFIEALGLEEVVLVIHDWGSALGFHWAKRNPERVKGIACMEFIRPIPTWDEWPEFARETFQAFRTADVGRELIIDQNAFIEGALPMGVVRPLTEVEMDHYREPFLKPVDREPLWRFPNELPIAGEPANIVALVEAYMNWLHQSPVPKLLFWGTPGVLIPPAEAARLAESLPNCKTVDIGPGLFLLQEDNPDLIGSEIARWLPAL
# Test: Kinetic labeling studies, fluorimage gel analysis
# Assay type: binding
# Details: for labeling appeared to be complete by: preliminary kinetic labeling studies
# Description: To facilitate comparative kinetic studies several improved DhaA mutants were selected for purification using a Glutathione Sepharose 4B resin. In general, production of DhaA.H272F and DhaA.D106C based fusions in E. coli was robust, although single amino acid changes may have negative consequences on the production of DhaA. As a result of this variability in protein production, the overall yield of the DhaA mutants also varied considerably (1-15 mg/mL). Preliminary kinetic labeling studies were performed using several DhaA.H272F derived mutants. Many, if not all, of the mutants chosen for analysis had faster labeling kinetics than the H272F parent. In fact, upon closer inspection of the time course, the labeling of several DhaA mutants including the first generation mutant YL and the two second generation mutants, A7YM and H11YL mutants appeared to be complete by 2 minutes. A more expanded time course analysis was performed on the DhaA.H272F A7 and the two second generation DhaA.H272F mutants A7YM and H11YL. The labeling reactions of the two second generation clones are for the most part complete by the first time point (20 seconds). The A7 mutant, on the other hand, appears only to be reaching completion by the last time point (7 minutes). The fluorescent bands on gel were quantitated and the relative rates of product formation determined. In order to determine a labeling rate, the concentration of the H11YL was reduced from 50 ng to 10 ng and a more refined time-course was performed. Under these labeling conditions a linear initial rate could be measured. Quantitation of the fluorimaged gel data allowed second order rate constants to be calculated. Based on the slope observed, the second order rate constant for carboxytetramethylrhodamine-C10H21NO2—Cl labeling of DhaA.H272F H11YL was 5.0×10^5 M^−1 sec^−1.
Molecule,labeling appeared to be complete by [min],labeling reactions for the most part complete by first time point (expanded time course) [s]
B1,≤ 2,
B2,≤ 2,≤ 20
